These are yes or no findings as the source states them, for the method shown. Binding seen in cells or lysates may run through a third protein. A yes stands for co-enrichment or nearness to the bait. Other partners may have been found. Sequences can lack the tags named with a protein.

By UniProt entry, the sequences of proteins in these tests, tags left out.
UniProt Q96SB4: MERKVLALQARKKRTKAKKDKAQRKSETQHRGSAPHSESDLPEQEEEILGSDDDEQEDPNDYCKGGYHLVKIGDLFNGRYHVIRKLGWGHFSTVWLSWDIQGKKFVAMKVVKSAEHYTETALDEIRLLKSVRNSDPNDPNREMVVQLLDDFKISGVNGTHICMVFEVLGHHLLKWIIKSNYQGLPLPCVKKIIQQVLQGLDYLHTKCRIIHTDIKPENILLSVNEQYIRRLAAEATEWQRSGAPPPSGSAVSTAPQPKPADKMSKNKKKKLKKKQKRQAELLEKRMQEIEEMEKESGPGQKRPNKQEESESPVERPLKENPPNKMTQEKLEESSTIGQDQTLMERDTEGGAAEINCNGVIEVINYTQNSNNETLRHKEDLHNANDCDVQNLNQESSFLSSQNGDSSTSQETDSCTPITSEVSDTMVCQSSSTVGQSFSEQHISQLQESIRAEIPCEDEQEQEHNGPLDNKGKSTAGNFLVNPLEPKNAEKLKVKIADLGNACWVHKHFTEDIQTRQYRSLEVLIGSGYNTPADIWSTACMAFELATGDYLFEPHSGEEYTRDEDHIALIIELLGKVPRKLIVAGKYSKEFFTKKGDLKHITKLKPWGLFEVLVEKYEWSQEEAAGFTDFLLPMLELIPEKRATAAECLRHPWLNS

This assay addresses T1, CTDNEP1-myc (HEK293T cells) (UniProt O95476).
T1 sequence: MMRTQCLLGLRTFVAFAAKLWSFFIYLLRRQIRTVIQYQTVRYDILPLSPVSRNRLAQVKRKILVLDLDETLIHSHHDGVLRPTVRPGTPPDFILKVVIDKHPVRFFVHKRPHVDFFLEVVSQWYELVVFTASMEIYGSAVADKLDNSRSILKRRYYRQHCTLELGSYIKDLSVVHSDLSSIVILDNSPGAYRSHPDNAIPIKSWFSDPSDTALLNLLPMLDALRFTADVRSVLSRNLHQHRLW
The experiment in a line: affinity purification with mass spectrometry; immunoprecipitation for CTDNEP1-myc in CTDNEP1 enforced expression HEK293T cells, followed by mass spectrometry.

As for “SRPK1 (HEK293T cells) (from UniProt Q96SB4 1-655)”, the binding entry is on record as “binds”.

These data come from PMC9918503.
